According to PubChem BioAssay AID1347076 (National Center for Advancing Translational Sciences (NCATS), 2019):
Screen size: about 400,000 compounds; about 13,000 (3.2%) were called active. Inconclusive results, whose numbers are uncertain, are shown with a selection of clear calls. Calls follow the shape of the dose curve; as a rule, active = well fitted cell-killing curve with a large enough effect; inconclusive = small, poorly fitted or top-dose-only effect, or effect the other way; inactive = flat fitted curve, though single readings scatter. Potencies of inconclusive entries are doubtful fits and often do not repeat. More than one record can exist for a structure, and the calls need not agree.

Test: qHTS assay for MDR1-selective chemotherapeutics: Primary screen using the drug-selected MDR subline cells KB-V1; also: nearly all actives have a fitted effect of over 60% in size
Settings: KB-V1 MDR cells viability, CellTiter-Glo, 72 h; activity change, negative = cytotoxicity: at 46.1 µM (top of the series)
Outline: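 Luminescent ATP read-out (CellTiter-Glo, 10 min) measures survival of drug-selected KB-V1 MDR cells after 72 h, 37 degrees C compound exposure. Medium: phenol-red-free DMEM, 10% FBS. Values from fitted concentration-response curves.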
% is scaled to controls: 0 for no effect and ±100 for the full control effect; potency is read from the fitted curve at half-maximal effect.

Compound	Potency	activity change, negative = cytotoxicity
c1ccc2c(c1)OCC(c1csc3ncnc(N4CCCC4)c13)O2 (stereo unspecified)	active: 13 µM	–
Cc1c(Cc2ccccc2)c(NCCN(C)C)n2c(nc3ccccc32)c1C#N	inconclusive: 0.651 µM [cytotoxic, full curve]	–
COc1ccc(-n2nc(C(=O)NCC(=O)NCCc3ccc(OC)c(OC)c3)c3ccccc3c2=O)cc1Cl	inconclusive: 32.6 µM [cytotoxic, single point]	–
CC(C)C1(CCNC(=O)c2cccs2)CCOC(C)(C)C1 (stereo unspecified)	inconclusive: 18.4 µM [cytotoxic, partial curve]	–
Cc1oc(-c2ccc(Cl)cc2)nc1CN1CCC(C(=O)NCC2CCCO2)CC1 (stereo unspecified)	inconclusive: 7.31 µM [cytotoxic, partial curve, poor fit]	–
COc1ccc(CCNC(=O)Cn2ccc3c(OC)cccc3c2=O)cc1OC	inactive	–
CC(=O)c1c(C)[nH]c(C(=O)Nc2ccc(C)c(S(=O)(=O)N(C)C)c2)c1C	inactive	–
O=C(CSc1ccc2c(c1)OCCO2)N1CCN(c2ccccc2)CC1	inconclusive: 18.4 µM [cytotoxic, single point]	–
CC(C)(C)c1ccc(C2=NC(=O)C(CC(=O)O)S2)cc1 (stereo unspecified)	–	inconclusive: -15%
CCOC(=O)CNC(=O)Nc1nnc(-c2ccc(OCC)cc2)o1	inactive	–
Cc1ccc(S(=O)(=O)Nc2ccccc2-c2ccccc2NS(=O)(=O)c2ccc(C)cc2)cc1	inconclusive: 23.1 µM [cytotoxic, partial curve]	–
COc1ccc(NS(=O)(=O)c2cc(NC(=O)CCSc3ccccc3)ccc2OC)cc1	inconclusive: 20.6 µM [cytotoxic, single point]	–
O=C(COc1ccccc1Cl)NC(=S)Nc1ccc(CN2CCOCC2)cc1	inconclusive: 23.1 µM [rising, single point]	–
Clc1ccc(C2CC(c3ccccc3)Nc3ncnn32)cc1 (stereo unspecified)	inconclusive: 29.1 µM [cytotoxic, single point]	–
Cc1ccc(S(=O)(=O)Nc2ccc3c(c2)CCCN3C(=O)c2cccs2)cc1	inactive	–
COc1ccc(-n2nnnc2SCC(=O)N2CCCC2=O)cc1	inactive	–
Cc1cc(C)cc(OCC(=O)N(Cc2cccs2)C2CCS(=O)(=O)C2)c1 (stereo unspecified)	active: 8.2 µM	–
COC(=O)c1ccc(/C=C/c2c(-c3ccc(OC)cc3)sc3ccccc23)cc1	inconclusive: 25.9 µM [cytotoxic, single point]	–
O=C(c1ccco1)N1CCN(C(=O)C2CC(=O)N(c3ccccc3)C2)CC1 (stereo unspecified)	inactive	–
CCOc1ccc(S(=O)(=O)N2CCCCC2)cc1NC(=O)Cc1ccsc1	active: 11.6 µM	–
NC(=O)c1c(NC(=O)C2CCCO2)sc2c1CCCC2 (stereo unspecified)	active: 14.6 µM	–
O=C(Nc1ccc(Cl)cc1)C1Cc2c(-c3ccccc3)ccnc2O1 (stereo unspecified)	inactive	–
CCN(CC)CCCNC(=O)c1oc2ccc(S(=O)(=O)N3CC(C)CC(C)C3)cc2c1C (stereo unspecified)	inconclusive: 7.31 µM [cytotoxic, partial curve, poor fit]	–

Compound	Potency	activity change, negative = cytotoxicity
CCOC(=O)c1sc(NC(=O)CSc2nnc(C)s2)c(C(=O)OCC)c1C	active: 1.64 µM	–
COc1ccc(CC(=O)N2CCc3cc(OC)c(OC)cc3C2COc2ccc(OC)cc2)cc1 (stereo unspecified)	inconclusive: 32.6 µM [cytotoxic, single point]	–
COc1ccc(N2CCN(C(=O)Cc3coc4cc(C)ccc34)CC2)cc1	inconclusive: 29.1 µM [cytotoxic, single point]	–
CN(C)C(=O)c1cccc(-c2csc(N3CCC(C(N)=O)CC3)n2)c1	inactive	–
Cc1cc(=O)[nH]c2nc(N)ccc12	inactive	–
COc1ccccc1NC(=O)Nc1nc(C(N)C(C)C)cs1 (stereo unspecified)	inactive	–
CC1CCN(c2oc(-c3ccco3)nc2S(=O)(=O)c2ccccc2)CC1	inconclusive: 8.2 µM [cytotoxic, partial curve, poor fit]	–
CN(C)C(=O)/C(=C/c1ccc(-c2cccc([N+](=O)[O-])c2)o1)NC(=O)c1ccccc1	inconclusive: 29.1 µM [cytotoxic, single point]	–
NS(=O)(=O)c1cc(C(=O)OCC(=O)NC2CCCCCCC2)ccc1Cl	–	inconclusive: 0%
C=CCn1c(SCC(=O)N(C)C2CCS(=O)(=O)C2)nnc1-c1ccncc1 (stereo unspecified)	inconclusive: 20.6 µM [rising, partial curve, poor fit]	–
COc1cccc(NC(=O)CN(C)C(C)C(=O)Nc2cc([N+](=O)[O-])ccc2Cl)c1 (stereo unspecified)	inconclusive: 10.3 µM [cytotoxic, partial curve, poor fit]	–
Cc1cc(C)c2ccc(/C=N/O)nc2c1O	inconclusive: 0.0092 µM [cytotoxic, full curve, poor fit]	–
Cc1ccc(/C=C2/NC(=O)N(Cc3ccc(Br)cc3)C2=O)o1	inactive	–
COc1ccc(C(=O)NC23CC4CC(CC(C4)C2)C3)cc1OC	inconclusive: 29.1 µM [cytotoxic, single point]	–
COC(=O)c1ccccc1NC(=S)N(C)C	inconclusive: 29.1 µM [rising, single point]	–
COc1cccc(N2CCN(c3ccc4nnc(CCC(=O)Nc5cccc(C(C)=O)c5)n4n3)CC2)c1	inconclusive: 14.6 µM [rising, partial curve, poor fit]	–
CN(C)CCOC1c2ccccc2CCc2ccc3ccccc3c21 (stereo unspecified)	inconclusive: 23.1 µM [cytotoxic, single point]	–
O=C(c1cc2ccccc2o1)N1CCN(c2ccccn2)CC1	inactive	–
COc1ccc(CCNC(=O)c2cnc3ccccc3n2)cc1	inactive	–
COc1ccc(NC(=O)COc2ccc(/C=N/O)cc2OC)cc1	inconclusive: 20.6 µM [cytotoxic, single point]	–
O=C(c1cc2cc(F)ccc2[nH]1)N(Cc1cccnc1)CC1CCCN(C2CCCCC2)C1 (stereo unspecified)	inactive	–
CCN1CCN(CCCNC(=O)c2ccc(/C=C3/Oc4ccccc4N(Cc4cccc(C)c4)C3=O)cc2)CC1	inactive	–
Cc1c(C(=O)NCc2ccc3c(c2)OCCO3)sc(=O)n1Cc1ccccc1F	inconclusive: 11.6 µM [cytotoxic, partial curve]	–

A draw from above in order of heavy-atom count, low to high:
Compound	Potency	activity change, negative = cytotoxicity
COc1ccc(NC(=O)COc2ccc(/C=N/O)cc2OC)cc1	inconclusive: 20.6 µM [cytotoxic, single point]	–
CN(C)C(=O)c1cccc(-c2csc(N3CCC(C(N)=O)CC3)n2)c1	inactive	–
COc1ccc(CC(=O)N2CCc3cc(OC)c(OC)cc3C2COc2ccc(OC)cc2)cc1 (stereo unspecified)	inconclusive: 32.6 µM [cytotoxic, single point]	–
